Literature values, collected in publication PMC8288134, “Synthesis, potential antitumor activity, cell cycle analysis, and multitarget mechanisms of novel hydrazones incorporating a 4-methylsulfonylbenzene scaffold: a molecular docking study” (Journal of Enzyme Inhibition and Medicinal Chemistry, 2021).

Columns and labels:
Set-up in all cases: method as in https://dtp.cancer.gov/dtpstandard/dwindex/index.jsp
Conditions in all cases: reference drugs, ref https://dtp.cancer.gov/dtpstandard/dwindex/index.jsp; cited from earlier work
MCF7 = system: MCF7
EKVX = system: EKVX
OVCAR-3 = system: OVCAR-3
SW-620 = system: SW-620
SNB-75 = system: SNB-75
PC-3 = system: PC-3

In the case of `COc1cc2ncnc(Nc3ccc(F)c(Cl)c3)c2cc1OCCCN1CCOCC1` [Gefitinib, gefitinib], the GI50 (MCF7) is given as 5.01 µM, the GI50 (EKVX) is given as 0.0501 µM and the GI50 (OVCAR-3) is given as 5.01 µM. The GI50 (SW-620) was 5.01 µM, the GI50 (SNB-75) was 5.01 µM and the GI50 (PC-3) was 5.01 µM.
